Here are results for 56 molecules from PubChem BioAssay AID2685 (National Center for Advancing Translational Sciences (NCATS), 2010).

A word on the AC50: it is the concentration at which the activity in the assay is half-maximal. A low value points to activity at low concentration.

The nature of this experiment: qHTS Assay for Lipid Storage Modulators in Drosophila S3 Cells.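 On cell number change: cells counted by Cell Tracker Red CMTPX staining in the red channel.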 Particulars: BODIPY lipid droplet fluorescence, 18-24 h; for cell number change: measured here: cell count max response, cells fed with added oleic acid. A digest of the protocol: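 Laser-scanning cytometry quantifies lipid droplet accumulation (500–530 nm total intensity; droplet/cell object ratio) in oleic acid-fed (400 uM added) Drosophila S3 cells treated with a concentration series. 20 uM Triacsin C defined 100% inhibition.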
For orientation: Quantitative high-throughput screening tests each substance at several concentrations.

[1] abbreviates: measured here: cell number channel AC50, cells fed with added oleic acid.
The mark [2] stands for this setting: measured here: lipid fluorescence (Fed channel) AC50, cells fed with added oleic acid.

This is one part of the list. Shown are side measurements of this screen, not its main read-out; they come without a call. Compounds called inactive in the main read-out are mostly missing here. The note in brackets gives the kind of curve behind each potency; many fits are weak.

As for `C/C(=N\Nc1ccc([N+](=O)[O-])cc1[N+](=O)[O-])C(C)C(C)C` (stereo not drawn), the cell number change is -69.8%. Besides, the AC50 under setting [1] was 13 µM [falling, partial curve]. For the same molecule, under setting [2], the AC50 is 29.1 µM [falling, single point].

With `COc1ccc(-n2c(=O)cc(N3CCN(c4ccccc4)CC3)[nH]c2=O)cc1`, the cell number change was -38.2%. Moreover, the AC50 under setting [1] was 29.1 µM [falling, single point]. The half-maximal activity concentration (AC50) under setting [2] was 0.231 µM [falling, full curve].

In the case of `COc1ccc(OC)c(NC(=O)CC(NCCC2=CCCCC2)C(=O)O)c1` (stereo not drawn), the AC50 under setting [2] is 4.11 µM [falling, partial curve].

Consider `O=c1[nH]c2ccc(Cl)cc2c(-c2ccccc2)c1SC(=S)N1CCOCC1`, for which the cell number change was -44.9%. Further, the AC50 under setting [1] is 5.8 µM [falling, full curve]. The AC50 under setting [2] was 6.51 µM [falling, single point].

On to `Cc1nn(-c2ccccc2)c(N)c1N=Nc1cccnc1`, for which the cell number change was 44.6%. Moreover, the AC50 under setting [1] was 11.6 µM [rising, partial curve, poor fit].

Turning to `CC(C)(C)c1cc(CN2CCCCC2)cc(C(C)(C)C)c1O`, the cell number change is 38.1%. Besides, under setting [1], the AC50 is 11.6 µM [rising, partial curve, poor fit].

As to `CCC(=O)Nc1ccc2nc(C)n(CC(=O)Nc3ccccc3)c(=O)c2c1`, the cell number change was -8.46%.

For the molecule `COc1ccc(C)cc1S(=O)(=O)N1CCN(C(=O)c2ncoc2-c2ccc(F)cc2)CC1`, the cell number change is -1.32%. For the same molecule, the AC50 under setting [2] was 3.16 µM [falling, partial curve].

Consider `COC(=O)CCC(=O)OC1(C)C(=O)C=C2C=C(C3CC3)N(C3CC3)C=C2C1=O` (stereo not drawn), for which the cell number change is -2.29%. For the same molecule, the AC50 under setting [2] was 0.517 µM [falling, partial curve, poor fit].

As to `O=C(CSc1nnc(Cc2ccccc2)o1)Nc1cccc(F)c1`, the cell number change was determined as 23.7%. The half-maximal activity concentration (AC50) under setting [2] is 29.1 µM [rising, single point].

Consider `O=C(c1ccc(COc2ccc(Br)cc2)o1)N1N=C(C(F)F)CC1(O)C(F)F` (stereo not drawn), for which the cell number change was -70.7%. Further, the AC50 under setting [1] was 16.4 µM [falling, partial curve]. For the same molecule, under setting [2], the concentration at half-maximal activity (AC50) is 20.6 µM [falling, partial curve].

Turning to `Cc1nc(SCn2nnc3ccccc3c2=O)nc(C)c1C`, the cell number change is -11.6%. In addition, the AC50 under setting [2] is 0.366 µM [rising, full curve].

Take `Cc1cccc(Nc2nnc(SC/C(O)=C(\C#N)c3nc4ccccc4[nH]3)s2)c1C`: the cell number change turned out to be 21.2%. Moreover, the AC50 under setting [2] was 2.59 µM [rising, full curve].

For the molecule `CCOCN(C(=O)Cn1c(COC)nc2ccccc21)c1c(C)cccc1CC`, the cell number change amounted to 47.8%. In addition, the AC50 under setting [1] was 1.64 µM [rising, full curve]. For the same molecule, the AC50 under setting [2] was 1.84 µM [rising, partial curve].

As to `Cc1ccc(Nc2nc3ccccc3nc2-n2nc(C)cc2C)cc1`, the cell number change was 71.4%. Moreover, the AC50 under setting [1] is 18.4 µM [rising, single point].

`COc1ccc(S(=O)(=O)CCc2nc3ccccc3s2)cc1`: the cell number change turned out to be 2.89%. The AC50 under setting [1] was 0.058 µM [rising, full curve, poor fit].

Take `O=C1C2=C(c3ccccc31)[N+](=O)C1CCCCC1N2[O-]` (stereo not drawn): the cell number change was determined as 16.7%. The AC50 under setting [2] is 23.1 µM [rising, single point].

With `Oc1ccc(-c2[nH]ncc2-c2nc3ccccc3s2)c(O)c1`, the cell number change is 39.2%. Further, the AC50 under setting [1] is 5.17 µM [rising, partial curve, poor fit]. Besides, the AC50 under setting [2] was 0.58 µM [rising, partial curve].

Take `CCc1c(C)n([O-])c2c([n+]1=O)CCCCC2`: the cell number change is 38.6%. Moreover, the AC50 under setting [1] was 0.651 µM [rising, full curve]. Besides, the concentration at half-maximal activity (AC50) under setting [2] was 5.17 µM [falling, full curve].

Take `CCOC(=O)C1CCCN(C(=O)CCCn2c(=O)c3cccn3c3cccnc32)C1` (stereo not drawn): the cell number change turned out to be 7.96%. For the same molecule, under setting [2], the AC50 is 29.1 µM [rising, single point].

As to `O=C(Cc1ccccc1)Nc1ccc(-c2nnc(-c3ccco3)o2)cc1`, the cell number change is -14.4%. Under setting [2], the AC50 was 1.84 µM [falling, full curve, poor fit].

Take `CC(C)NC(=O)CCn1ccc2cc(S(=O)(=O)N3CCCC3)ccc21`: the cell number change is -4.78%. Under setting [2], the concentration at half-maximal activity (AC50) is 0.82 µM [rising, single point].

For the molecule `Cc1ccc(NS(=O)(=O)c2cc(C(=O)N3CCOCC3)ccc2C)cc1C`, the cell number change was -51.2%. Besides, the AC50 under setting [1] is 23.1 µM [falling, single point].

`O=C(NC1CCCCCC1)C1CCCN(S(=O)(=O)c2cccs2)C1` (stereo not drawn): the cell number change is -3.91%.

In the case of `O=C(CCc1ccccc1)NNC(=O)COc1ccc(Cl)cc1`, the cell number change worked out at 16.5%. Moreover, the AC50 under setting [1] is 3.26 µM [rising, partial curve, poor fit]. In addition, the concentration at half-maximal activity (AC50) under setting [2] is 29.1 µM [rising, single point].

As to `CCn1c(=O)cc(OCC(=O)NC(C)c2ccc3c(c2)OCCO3)c2ccccc21` (stereo not drawn), the cell number change is 16.1%. Also, the AC50 under setting [1] was 2.06 µM [rising, single point]. Moreover, the AC50 under setting [2] is 6.51 µM [rising, single point].

As for `CCOC(=O)C1(Cc2cccc(Cl)c2)CCCN(C(=O)C(C)(C)C)C1` (stereo not drawn), the cell number change worked out at 9.62%.

As for `COC(=O)CSc1nnc(-c2ccncc2)o1`, the cell number change stood at 3.12%. For the same molecule, the AC50 under setting [2] was 18.4 µM [falling, partial curve, poor fit].

As for `N#Cc1nc(-c2cccc3ccccc23)oc1NCCN1CCCCC1`, the AC50 under setting [2] is 0.58 µM [falling, full curve, poor fit].

Turning to `COc1ccc(N(CC(=O)NCCSc2ccccn2)S(=O)(=O)c2ccccc2)c(OC)c1`, the cell number change is -3.95%. Also, the AC50 under setting [2] is 3.16 µM [falling, partial curve].

For the molecule `O=C(c1ccc2ccccc2c1)N1CCN(c2ccccc2)CC1`, the cell number change was -0.556%. Moreover, under setting [2], the AC50 was 16.4 µM [rising, single point].

With `Cc1csc(=Nc2c(C)n(C)n(-c3ccccc3)c2=O)n1-c1ccccc1`, the cell number change was -58.3%. Further, the AC50 under setting [1] is 0.92 µM [falling, full curve]. Also, the AC50 under setting [2] is 0.651 µM [falling, full curve, poor fit].

For the molecule `CCc1ccc(-c2nc(SCC(=O)N(CCOC)c3c(N)n(Cc4ccccc4)c(=O)[nH]c3=O)n[nH]2)cc1`, the cell number change was 4.91%. Under setting [1], the concentration at half-maximal activity (AC50) is 0.82 µM [rising, full curve, poor fit]. The half-maximal activity concentration (AC50) under setting [2] was 0.92 µM [rising, full curve].

For `COc1cccc(NC(=O)CN(C)C(=O)c2ccc(S(=O)(=O)Nc3ccccc3F)cc2)c1`, the cell number change is -19.1%. Further, the AC50 under setting [2] was 0.00461 µM [falling, full curve, poor fit].

Regarding `CCOC(=O)NC(=O)CSc1ccc(C)cc1C`, the AC50 under setting [2] is 0.103 µM [falling, single point].

For `COc1cccc(N2CC(NC(=O)C(=O)c3c[nH]c4ccccc34)CC2=O)c1` (stereo not drawn), the cell number change is 85.9%. For the same molecule, the AC50 under setting [1] was 10.3 µM [rising, partial curve].

Turning to `Cc1ccc(N=CC=C2OC(C)(C)C(C)(C)O2)cc1`, the cell number change turned out to be 58%. Also, the AC50 under setting [1] is 29.1 µM [rising, single point]. Moreover, under setting [2], the AC50 was 29.1 µM [falling, single point].

As to `N#C/C(=N\Nc1ccc([N+](=O)[O-])cc1)C(=N)N1CCOCC1`, the cell number change is 17.2%. For the same molecule, the AC50 under setting [1] is 0.116 µM [rising, full curve, poor fit].

With `Cc1nnc(N2CCc3ccccc3C2)[nH]c1=O`, the cell number change was found to be 0.718%. Under setting [2], the AC50 was 1.84 µM [falling, partial curve, poor fit].

Regarding `O=C(NNc1c2ccccc2nc2ccccc12)c1ccccc1O`, the cell number change is 16.7%. Also, under setting [1], the AC50 was 2.06 µM [falling, partial curve]. In addition, the AC50 under setting [2] was 20.6 µM [falling, single point].

On to `O=C(CSc1nc2ccccc2s1)N1CCOCC1`, for which the AC50 under setting [2] was 0.58 µM [falling, single point].

Turning to `Cc1ccc(N2CC(C(=O)NC3CC3)CC2=O)cc1Cl` (stereo not drawn), the cell number change was 16.2%. Under setting [2], the AC50 was 0.58 µM [falling, single point].

Turning to `CC12CCC(=O)N1C(C(=O)OCc1c(Cl)cccc1Cl)CS2` (stereo not drawn), the cell number change worked out at 10.4%.

With `O=C1c2ccccc2C2(c3ccc(F)cc3)NCCN12` (stereo not drawn), the cell number change is -19.1%. Besides, the AC50 under setting [1] is 2.06 µM [falling, partial curve]. Besides, the AC50 under setting [2] is 7.31 µM [falling, partial curve].

In the case of `CCOC(=O)C(NC(=O)c1ccccc1)(OCc1ccccc1)C(F)(F)F` (stereo not drawn), the cell number change was -55.3%. Besides, under setting [1], the AC50 was 10.3 µM [falling, partial curve]. For the same molecule, the AC50 under setting [2] is 1.16 µM [falling, full curve].

With `CCCn1c(C(C)C)n[nH]c1=S`, the cell number change was -24.9%. In addition, under setting [2], the AC50 is 5.8 µM [falling, full curve].

Consider `CC(OC(=O)c1ccc(O)cc1)C(=O)Nc1cc(C(F)(F)F)ccc1Cl` (stereo not drawn), for which the cell number change was -47.7%. In addition, the half-maximal activity concentration (AC50) under setting [1] is 25.9 µM [falling, single point]. Also, the AC50 under setting [2] was 29.1 µM [falling, single point].

As for `CCOC(=O)C(C)c1nn(C)c(=O)c2ccccc12` (stereo not drawn), the cell number change was -24.7%.

Regarding `CCC(C)(C)NC(=O)C(c1cccn1C)N(C(=O)Cn1nnc2ccccc21)c1ccccc1OC` (stereo not drawn), the cell number change was -5.66%. Moreover, the AC50 under setting [2] was 29.1 µM [rising, single point].

On to `CCCOc1ccc(C(=O)Nc2ccc(NC(=O)c3cccs3)cc2)cc1`, for which the cell number change was 13.3%. In addition, the AC50 under setting [2] was 10.3 µM [rising, partial curve].

For `C#Cc1ccc([C@@H]2C=C(C(=O)OCC=C)O[C@H](OCc3ccc(CO)cc3)C2)cc1`, the cell number change was found to be 21.9%. Also, under setting [2], the AC50 is 0.164 µM [rising, partial curve].

Turning to `Cc1ccc(NC(=O)c2ccc(=O)n(CC(=O)Nc3ccccc3)n2)cc1`, the cell number change is -3.3%.

For the molecule `Cc1ccc(CNC(=O)c2ccc(N3CCC4(CC3)CC(c3cccc(Br)c3)=NO4)c(NC(=O)c3ccccc3)c2)cc1`, the cell number change is 6.93%. In addition, the AC50 under setting [2] is 0.164 µM [falling, full curve].

Regarding `Cc1ccc(C)c(-n2[nH]c3c4c(ccc3c2=O)C(=O)c2ccccc2C4=O)c1`, the cell number change turned out to be 11.4%. For the same molecule, under setting [1], the AC50 is 0.164 µM [falling, full curve, poor fit]. The concentration at half-maximal activity (AC50) under setting [2] is 6.51 µM [falling, partial curve].

For the molecule `O=C(NCC1(N2CCOCC2)CCCCC1)c1ccc(Cl)c(S(=O)(=O)NCc2ccco2)c1`, the cell number change is -19%.

Take `COC(=O)CCCCCCCCC(O)C[N+]1(C)CCOCC1` (stereo not drawn): the cell number change amounted to 34.7%. The concentration at half-maximal activity (AC50) under setting [1] was 11.6 µM [rising, single point].
